From PMC11310286
These are yes or no findings as the source states them, for the method shown. In cells and extracts the contact can be indirect. Some results given as binding are weak or reduced against the parent protein; the word gives no strength. For some assays here: Where a sequence is shown, tags or fusion partners need not be part of it.

T1: CARD9 (endogenous, mouse) (mouse (endogenous in heart tissue and MPMs)) (UniProt A2AIV8)
T1 sequence: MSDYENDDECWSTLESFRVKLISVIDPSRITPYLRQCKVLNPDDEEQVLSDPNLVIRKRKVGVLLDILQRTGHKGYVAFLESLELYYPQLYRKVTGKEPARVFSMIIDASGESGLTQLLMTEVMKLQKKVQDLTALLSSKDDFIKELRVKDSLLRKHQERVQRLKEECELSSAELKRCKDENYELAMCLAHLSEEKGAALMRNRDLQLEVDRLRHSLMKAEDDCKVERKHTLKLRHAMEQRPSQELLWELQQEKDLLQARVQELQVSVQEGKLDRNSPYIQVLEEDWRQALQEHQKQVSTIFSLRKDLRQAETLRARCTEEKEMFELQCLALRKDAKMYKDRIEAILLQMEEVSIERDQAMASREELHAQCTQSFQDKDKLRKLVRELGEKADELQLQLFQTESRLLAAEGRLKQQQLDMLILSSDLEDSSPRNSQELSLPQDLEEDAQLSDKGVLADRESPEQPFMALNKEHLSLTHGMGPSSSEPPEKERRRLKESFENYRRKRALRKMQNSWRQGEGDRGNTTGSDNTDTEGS

T2: Myc-CARD9, Q9H257
T2 chain: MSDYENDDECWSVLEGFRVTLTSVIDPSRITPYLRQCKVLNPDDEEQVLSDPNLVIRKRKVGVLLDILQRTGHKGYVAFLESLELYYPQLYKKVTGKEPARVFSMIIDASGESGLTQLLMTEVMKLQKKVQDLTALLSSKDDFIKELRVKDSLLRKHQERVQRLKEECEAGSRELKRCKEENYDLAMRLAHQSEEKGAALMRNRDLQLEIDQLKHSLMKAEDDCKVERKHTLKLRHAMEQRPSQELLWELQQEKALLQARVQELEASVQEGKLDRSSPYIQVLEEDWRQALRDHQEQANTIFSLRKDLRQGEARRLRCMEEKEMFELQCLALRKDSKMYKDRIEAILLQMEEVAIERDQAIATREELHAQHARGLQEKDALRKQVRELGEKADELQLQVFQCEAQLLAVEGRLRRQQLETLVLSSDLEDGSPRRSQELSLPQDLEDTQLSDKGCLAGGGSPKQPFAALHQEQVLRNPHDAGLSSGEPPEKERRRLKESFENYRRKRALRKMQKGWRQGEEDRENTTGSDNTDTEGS


Tests used:
[1] = molecular target: T1, CARD9 (endogenous, mouse) (mouse (endogenous in heart tissue and MPMs)); assay: co-IP; mouse heart tissue lysates (RIPA buffer); endogenous CARD9 precipitated with anti-CARD9 antibody and protein A+G-sepharose beads, IgG as IP control; immunoblot; mice sham or infused with ISO 30 mg/kg/day for 2 weeks, also chimeric mice with WT or Otud1-/- bone marrow
[2] = molecular target: T1, CARD9 (endogenous, mouse) (mouse (endogenous in heart tissue and MPMs)); assay: co-IP; lysates of primary mouse peritoneal macrophages; endogenous CARD9 precipitated with anti-CARD9 antibody, IgG as IP control; immunoblot; cells with or without ISO (20 uM, 1 h), from WT or Otud1-/- mice
[3] = molecular target: T2, Myc-CARD9, Q9H257; assay: co-IP; lysates of transfected HEK-293T cells; Myc-CARD9 precipitated with anti-Myc, immunoblot of Flag or GFP and Myc; for the BCL10 pair also co-transfected HA-Ub, HA-K33, Flag-OTUD1 or Flag-OTUD1-C320S and MG132 (10 uM) for 6 h; conditions: remark: other sources report otherwise

binding [1]	binding [2]	binding [3]	Binder
binds	binds	–	BCL10 (endogenous, mouse) (protein, UniProt Q9Z0H7 1-233) MEAPAPSLTEEDLTEVKKDALENLRVYLCEKIIAERHFDHLRAKKILSREDTEEISCRTSSRKRAGKLLDYLQENPRGLDTLVESIRREKTQSFLIQKITDEVLKLRNIKLEHLKGLKCSSCEPFAAGATNNLSRCNSDESNLSEKQRASTVMYHPEGESSTAPFFSMASSLNLPVLEVGRTENSSFSSATLPRPGDPGAPPLPPDLRLEEGGSCGNSSEMFLPLRSRALSRQ
–	–	binds	GFP-BCL10, O95999 1-233 (protein) MEPTAPSLTEEDLTEVKKDALENLRVYLCEKIIAERHFDHLRAKKILSREDTEEISCRTSSRKRAGKLLDYLQENPKGLDTLVESIRREKTQNFLIQKITDEVLKLRNIKLEHLKGLKCSSCEPFPDGATNNLSRSNSDESNFSEKLRASTVMYHPEGESSTTPFFSTNSSLNLPVLEVGRTENTIFSSTTLPRPGDPGAPPLPPDLQLEEEGTCANSSEMFLPLRSRTVSRQ
binds	binds	–	OTUD1 (endogenous, mouse) (enzyme, UniProt Q9CUB6 1-454) MQLYSSVCTHYPAGTPGPTAAAPPATAAAAFKVSLQSASPAAAAPEPDTGERPPAAATEPREAAAAAAMPAFSACFERSGSAAAPPGACSKPPLPPHFTSTAHIAVRALGAERLLLPPPSAPSPPRRGSSAWLLEELLRPDEPAAPNAVRDAPDRNFRLSEHRQALAASQHRAPAPAPVGPEPGAGPGSGPWGEERRAERSSRGWDRASGRSDASGSDALRRQDPEAEAHPVPAPARSSGEPAQNGEGEAVGTSRADPRDEKLALYLAEVERQDKYLRQRNKYRFHIIPDGNCLYRAVSKTVYGDQSLHRELREQTVHYIADHLDHFSPLIEGDVGEFIIAAAQDGAWAGYPELLAMGQMLNVNIHLTTGGRLESPTVSTMIHYLGPEDSLRPSIWLSWLSNGHYDAVFDHSYPNPEYDNWCKQTQIQKKRDEELAKSMAISLSKMYIEQNACS
